Results are given in words; binding and its absence hold for the method and conditions named. Binding seen in cells or lysates may run through a third protein. Binding can be weak; no strength is given.

The test deals with T1, Robo4 (Roundabout 4) (human (endogenous in L-LECs)) (UniProt Q8WZ75).
T1 sequence: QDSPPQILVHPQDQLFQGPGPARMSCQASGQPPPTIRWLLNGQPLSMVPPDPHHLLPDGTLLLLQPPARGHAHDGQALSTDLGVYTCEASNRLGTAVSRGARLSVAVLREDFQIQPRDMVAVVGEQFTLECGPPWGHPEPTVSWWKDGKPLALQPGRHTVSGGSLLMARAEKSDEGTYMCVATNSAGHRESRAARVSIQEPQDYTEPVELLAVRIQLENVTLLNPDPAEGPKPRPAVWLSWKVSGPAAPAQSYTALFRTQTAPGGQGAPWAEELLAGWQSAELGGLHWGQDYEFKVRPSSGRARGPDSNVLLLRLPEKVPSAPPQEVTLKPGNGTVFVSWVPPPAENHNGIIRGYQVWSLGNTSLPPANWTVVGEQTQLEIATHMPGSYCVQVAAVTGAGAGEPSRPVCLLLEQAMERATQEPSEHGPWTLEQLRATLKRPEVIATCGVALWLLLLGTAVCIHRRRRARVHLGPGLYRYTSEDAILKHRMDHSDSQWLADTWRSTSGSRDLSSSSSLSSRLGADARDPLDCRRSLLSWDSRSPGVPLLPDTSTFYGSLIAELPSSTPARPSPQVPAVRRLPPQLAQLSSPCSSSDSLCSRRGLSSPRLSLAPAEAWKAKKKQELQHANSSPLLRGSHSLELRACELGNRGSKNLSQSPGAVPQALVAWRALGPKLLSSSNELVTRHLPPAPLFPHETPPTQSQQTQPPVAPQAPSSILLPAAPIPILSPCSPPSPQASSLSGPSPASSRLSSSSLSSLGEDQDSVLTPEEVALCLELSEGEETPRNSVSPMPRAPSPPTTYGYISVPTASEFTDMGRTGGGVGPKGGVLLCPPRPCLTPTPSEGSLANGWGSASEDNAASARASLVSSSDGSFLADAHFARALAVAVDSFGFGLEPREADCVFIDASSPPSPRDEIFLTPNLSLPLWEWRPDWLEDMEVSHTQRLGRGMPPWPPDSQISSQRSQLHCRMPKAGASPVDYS
Description: co-IP; Robo4 immunoprecipitated from total lysates (RIPA buffer) of L-LECs, Western blot for the partner; cells serum-starved 2 h, then treated with HIV-1 gp120 (500 ng/ml), Slit2N (500 ng/ml) or controls for 15 min, or with Slit2N 2 h and then gp120 for the times indicated. Background: In western blotting, separated proteins are transferred to a membrane and probed.

For “α5β1 integrin (human (endogenous in L-LECs)) (complex)”, the binding result is on record as “binds”.

For the origin of these results see article PMC3252370.
